PMC11290997

Amino acid sequences for entries named in this document (tags omitted). A change or cut given only in a name is not applied to a line headed by its entry. Chains listed by the source or under a name are the forms on record and can include a tag or linker.
ΔF508 cystic fibrosis transmembrane conductance regulator (CFTR) (P13569, form named): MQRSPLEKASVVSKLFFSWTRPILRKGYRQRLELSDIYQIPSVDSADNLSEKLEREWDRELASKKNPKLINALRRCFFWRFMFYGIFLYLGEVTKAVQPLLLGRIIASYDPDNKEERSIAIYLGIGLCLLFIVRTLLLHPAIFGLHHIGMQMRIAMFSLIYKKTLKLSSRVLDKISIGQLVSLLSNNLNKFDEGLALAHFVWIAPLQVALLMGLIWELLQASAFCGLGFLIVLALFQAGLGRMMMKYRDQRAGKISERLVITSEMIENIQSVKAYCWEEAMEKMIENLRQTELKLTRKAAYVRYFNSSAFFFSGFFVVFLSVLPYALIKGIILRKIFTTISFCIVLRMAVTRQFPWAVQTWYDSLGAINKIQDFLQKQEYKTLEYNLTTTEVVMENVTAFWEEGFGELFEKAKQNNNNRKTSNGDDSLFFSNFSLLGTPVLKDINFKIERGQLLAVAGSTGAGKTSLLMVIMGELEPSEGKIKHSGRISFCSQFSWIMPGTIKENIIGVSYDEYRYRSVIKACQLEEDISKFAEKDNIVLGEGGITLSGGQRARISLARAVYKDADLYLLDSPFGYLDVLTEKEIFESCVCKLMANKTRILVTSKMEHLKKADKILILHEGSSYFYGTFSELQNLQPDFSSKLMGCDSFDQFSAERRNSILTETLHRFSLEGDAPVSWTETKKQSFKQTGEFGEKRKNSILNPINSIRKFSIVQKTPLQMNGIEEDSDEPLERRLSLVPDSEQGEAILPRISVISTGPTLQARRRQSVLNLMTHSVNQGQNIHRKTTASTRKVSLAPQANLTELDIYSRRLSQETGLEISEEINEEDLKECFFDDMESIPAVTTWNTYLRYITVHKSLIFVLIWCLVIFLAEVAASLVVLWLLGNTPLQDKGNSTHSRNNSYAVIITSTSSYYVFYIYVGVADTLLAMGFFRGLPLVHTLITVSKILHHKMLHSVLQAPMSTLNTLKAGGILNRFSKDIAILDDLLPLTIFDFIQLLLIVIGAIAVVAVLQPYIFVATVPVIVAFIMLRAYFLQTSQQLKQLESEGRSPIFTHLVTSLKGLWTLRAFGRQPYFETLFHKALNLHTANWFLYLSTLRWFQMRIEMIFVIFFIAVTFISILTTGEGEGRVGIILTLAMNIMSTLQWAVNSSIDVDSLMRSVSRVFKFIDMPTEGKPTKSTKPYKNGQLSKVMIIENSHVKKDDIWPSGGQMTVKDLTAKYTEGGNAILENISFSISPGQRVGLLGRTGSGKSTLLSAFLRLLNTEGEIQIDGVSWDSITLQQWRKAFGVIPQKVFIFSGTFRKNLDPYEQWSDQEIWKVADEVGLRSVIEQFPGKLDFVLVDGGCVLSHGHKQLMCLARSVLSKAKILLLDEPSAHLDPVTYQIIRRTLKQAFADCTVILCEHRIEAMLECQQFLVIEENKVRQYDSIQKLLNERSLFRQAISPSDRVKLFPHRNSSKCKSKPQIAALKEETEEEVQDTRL
UniProt O75190: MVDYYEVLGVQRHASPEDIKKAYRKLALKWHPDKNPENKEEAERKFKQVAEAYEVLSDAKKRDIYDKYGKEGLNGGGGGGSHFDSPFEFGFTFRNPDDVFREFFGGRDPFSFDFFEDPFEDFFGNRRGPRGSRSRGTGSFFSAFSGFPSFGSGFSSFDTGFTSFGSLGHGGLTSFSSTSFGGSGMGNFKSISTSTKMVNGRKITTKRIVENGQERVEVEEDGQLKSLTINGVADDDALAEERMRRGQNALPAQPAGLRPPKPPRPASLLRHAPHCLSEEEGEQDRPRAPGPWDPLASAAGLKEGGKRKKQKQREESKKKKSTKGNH
UniProt O95197: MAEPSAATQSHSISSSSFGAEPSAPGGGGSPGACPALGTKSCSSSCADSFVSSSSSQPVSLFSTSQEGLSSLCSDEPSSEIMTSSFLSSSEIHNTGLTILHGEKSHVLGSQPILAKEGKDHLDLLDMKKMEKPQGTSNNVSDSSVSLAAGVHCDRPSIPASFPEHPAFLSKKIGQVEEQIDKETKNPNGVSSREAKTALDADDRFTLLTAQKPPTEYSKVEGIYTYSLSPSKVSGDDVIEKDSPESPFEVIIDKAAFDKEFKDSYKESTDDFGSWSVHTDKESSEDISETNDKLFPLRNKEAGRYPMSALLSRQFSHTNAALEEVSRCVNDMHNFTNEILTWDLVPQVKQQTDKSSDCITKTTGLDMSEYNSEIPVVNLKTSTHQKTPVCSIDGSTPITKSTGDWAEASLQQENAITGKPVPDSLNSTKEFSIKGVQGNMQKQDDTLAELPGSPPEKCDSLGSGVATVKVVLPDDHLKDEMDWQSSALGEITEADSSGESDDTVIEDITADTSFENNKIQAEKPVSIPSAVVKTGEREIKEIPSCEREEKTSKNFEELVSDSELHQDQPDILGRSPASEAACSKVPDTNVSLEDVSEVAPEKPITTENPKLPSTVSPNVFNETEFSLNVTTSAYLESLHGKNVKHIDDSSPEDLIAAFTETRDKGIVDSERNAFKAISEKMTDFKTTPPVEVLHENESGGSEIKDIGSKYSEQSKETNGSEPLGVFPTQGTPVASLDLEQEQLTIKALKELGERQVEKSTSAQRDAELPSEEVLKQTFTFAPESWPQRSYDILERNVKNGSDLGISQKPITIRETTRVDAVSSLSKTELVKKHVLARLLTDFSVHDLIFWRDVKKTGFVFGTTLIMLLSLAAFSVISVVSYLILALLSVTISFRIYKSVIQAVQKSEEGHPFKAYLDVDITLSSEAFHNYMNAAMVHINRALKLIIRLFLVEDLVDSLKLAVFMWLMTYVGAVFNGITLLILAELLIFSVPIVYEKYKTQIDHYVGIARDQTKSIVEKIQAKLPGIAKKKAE
UniProt P34932: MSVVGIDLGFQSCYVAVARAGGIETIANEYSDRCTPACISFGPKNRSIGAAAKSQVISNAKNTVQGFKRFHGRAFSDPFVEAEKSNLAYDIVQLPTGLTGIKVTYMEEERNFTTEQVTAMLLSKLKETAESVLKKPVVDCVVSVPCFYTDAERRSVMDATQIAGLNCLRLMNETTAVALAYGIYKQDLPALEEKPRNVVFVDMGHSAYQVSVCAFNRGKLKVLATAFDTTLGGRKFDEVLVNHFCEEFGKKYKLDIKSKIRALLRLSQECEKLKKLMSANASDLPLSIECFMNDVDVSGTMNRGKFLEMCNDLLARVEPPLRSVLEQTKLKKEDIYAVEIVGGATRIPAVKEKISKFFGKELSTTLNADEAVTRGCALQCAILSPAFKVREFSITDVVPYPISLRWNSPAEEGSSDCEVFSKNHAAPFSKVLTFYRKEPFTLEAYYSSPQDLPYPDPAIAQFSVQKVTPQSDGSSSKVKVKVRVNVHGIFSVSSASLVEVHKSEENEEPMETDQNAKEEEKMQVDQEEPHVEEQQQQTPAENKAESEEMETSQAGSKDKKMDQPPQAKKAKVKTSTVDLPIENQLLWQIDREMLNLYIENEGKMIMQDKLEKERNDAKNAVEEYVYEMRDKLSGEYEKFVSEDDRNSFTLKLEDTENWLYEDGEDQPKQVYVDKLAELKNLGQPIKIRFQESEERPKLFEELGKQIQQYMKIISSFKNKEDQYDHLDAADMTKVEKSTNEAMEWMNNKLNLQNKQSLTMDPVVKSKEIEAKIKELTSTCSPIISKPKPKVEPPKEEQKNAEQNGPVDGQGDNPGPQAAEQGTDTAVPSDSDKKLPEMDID
UniProt P17066: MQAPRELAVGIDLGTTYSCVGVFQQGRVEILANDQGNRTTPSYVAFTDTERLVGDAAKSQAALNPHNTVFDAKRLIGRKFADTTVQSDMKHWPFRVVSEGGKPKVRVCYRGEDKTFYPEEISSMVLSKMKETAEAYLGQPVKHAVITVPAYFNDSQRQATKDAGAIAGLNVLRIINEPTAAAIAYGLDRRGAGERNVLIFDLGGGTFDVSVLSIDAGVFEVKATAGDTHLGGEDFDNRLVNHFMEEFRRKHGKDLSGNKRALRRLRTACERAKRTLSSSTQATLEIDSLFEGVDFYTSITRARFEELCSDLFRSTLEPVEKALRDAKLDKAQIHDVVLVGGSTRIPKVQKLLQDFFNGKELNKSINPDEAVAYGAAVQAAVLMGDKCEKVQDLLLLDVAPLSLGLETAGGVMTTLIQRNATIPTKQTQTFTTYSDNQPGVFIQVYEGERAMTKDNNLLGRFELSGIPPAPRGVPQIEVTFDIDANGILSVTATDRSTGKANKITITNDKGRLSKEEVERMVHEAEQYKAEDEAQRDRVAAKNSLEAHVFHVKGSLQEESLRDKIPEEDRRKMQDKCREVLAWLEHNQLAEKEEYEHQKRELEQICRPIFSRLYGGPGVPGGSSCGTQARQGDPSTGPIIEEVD
UniProt P04792: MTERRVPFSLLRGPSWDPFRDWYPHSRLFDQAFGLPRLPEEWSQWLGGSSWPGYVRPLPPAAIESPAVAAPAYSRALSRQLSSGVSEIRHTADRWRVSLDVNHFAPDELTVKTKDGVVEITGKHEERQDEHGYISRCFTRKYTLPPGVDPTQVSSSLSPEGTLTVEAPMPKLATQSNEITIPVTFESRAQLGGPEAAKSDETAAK
UniProt Q15386: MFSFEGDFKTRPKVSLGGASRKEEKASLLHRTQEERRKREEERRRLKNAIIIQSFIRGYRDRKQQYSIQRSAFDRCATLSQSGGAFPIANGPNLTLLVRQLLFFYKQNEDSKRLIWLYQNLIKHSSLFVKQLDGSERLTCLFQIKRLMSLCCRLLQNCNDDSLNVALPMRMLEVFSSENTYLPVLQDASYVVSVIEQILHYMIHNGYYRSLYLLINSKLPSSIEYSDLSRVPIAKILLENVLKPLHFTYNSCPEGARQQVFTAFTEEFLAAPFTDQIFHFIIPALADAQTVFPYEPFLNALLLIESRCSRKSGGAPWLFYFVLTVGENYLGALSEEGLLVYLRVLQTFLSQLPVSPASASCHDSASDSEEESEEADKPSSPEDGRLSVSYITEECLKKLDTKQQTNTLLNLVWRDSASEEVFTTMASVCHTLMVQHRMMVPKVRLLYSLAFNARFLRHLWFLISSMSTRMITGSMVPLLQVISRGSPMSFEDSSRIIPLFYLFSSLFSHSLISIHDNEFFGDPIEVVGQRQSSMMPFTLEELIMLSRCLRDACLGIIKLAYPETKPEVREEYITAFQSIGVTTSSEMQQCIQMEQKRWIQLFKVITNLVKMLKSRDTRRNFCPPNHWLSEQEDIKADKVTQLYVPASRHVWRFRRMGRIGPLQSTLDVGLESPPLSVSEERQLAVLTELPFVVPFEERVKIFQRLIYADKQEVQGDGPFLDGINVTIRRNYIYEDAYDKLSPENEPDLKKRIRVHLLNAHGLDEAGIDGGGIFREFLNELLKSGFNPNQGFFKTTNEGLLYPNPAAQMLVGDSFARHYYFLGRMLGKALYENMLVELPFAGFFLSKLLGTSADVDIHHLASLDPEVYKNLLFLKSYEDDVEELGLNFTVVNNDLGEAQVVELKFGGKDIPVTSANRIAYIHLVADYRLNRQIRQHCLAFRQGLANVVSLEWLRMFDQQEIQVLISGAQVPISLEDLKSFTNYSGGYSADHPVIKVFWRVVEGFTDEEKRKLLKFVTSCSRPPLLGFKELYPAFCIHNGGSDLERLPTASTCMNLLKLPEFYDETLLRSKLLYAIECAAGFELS
UniProt Q99613: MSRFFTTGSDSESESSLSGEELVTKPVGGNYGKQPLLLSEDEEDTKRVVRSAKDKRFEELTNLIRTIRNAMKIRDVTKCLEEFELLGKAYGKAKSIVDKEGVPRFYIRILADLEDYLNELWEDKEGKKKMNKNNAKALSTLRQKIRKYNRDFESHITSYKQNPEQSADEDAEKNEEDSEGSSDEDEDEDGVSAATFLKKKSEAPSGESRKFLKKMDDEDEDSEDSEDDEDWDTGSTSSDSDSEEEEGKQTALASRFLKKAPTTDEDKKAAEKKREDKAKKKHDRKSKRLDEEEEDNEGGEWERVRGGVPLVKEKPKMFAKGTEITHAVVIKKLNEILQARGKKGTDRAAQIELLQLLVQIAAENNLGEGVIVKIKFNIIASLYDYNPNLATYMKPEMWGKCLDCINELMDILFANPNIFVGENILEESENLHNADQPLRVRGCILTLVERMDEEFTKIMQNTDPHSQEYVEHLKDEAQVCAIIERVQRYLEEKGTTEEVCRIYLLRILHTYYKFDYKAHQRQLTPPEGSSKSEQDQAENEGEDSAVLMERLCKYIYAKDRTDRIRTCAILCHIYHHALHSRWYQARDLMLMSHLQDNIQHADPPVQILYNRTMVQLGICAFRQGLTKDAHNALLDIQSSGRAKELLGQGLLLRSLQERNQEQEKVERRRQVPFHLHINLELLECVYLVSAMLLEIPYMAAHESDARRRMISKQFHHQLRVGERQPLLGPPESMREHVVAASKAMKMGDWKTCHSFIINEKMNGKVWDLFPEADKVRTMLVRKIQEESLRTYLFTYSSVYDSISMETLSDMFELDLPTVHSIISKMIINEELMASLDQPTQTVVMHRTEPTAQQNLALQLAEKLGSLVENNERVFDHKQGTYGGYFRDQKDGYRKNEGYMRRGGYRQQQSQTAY

The substances below were run against ΔF508 cystic fibrosis transmembrane conductance regulator (CFTR) (human) (UniProt P13569) (assay: affinity purification with mass spectrometry; co-IP of untagged CFTR from pre-cleared HEK293T lysates with Protein G beads crosslinked to the 24-1 antibody, overnight at 4°C; TMTpro 16plex LC-MS/MS; interactors filtered against a GFP transfection control; ΔF508 CFTR expressed from the native or the RFmut (silent mutations) transcript).

binding, binds:
CANX (from UniProt P27824 21-592)
DNAJB6 (from UniProt O75190 1-326)
ER-PHAGY protein RTN3 (from UniProt O95197 1-1032)
HspA4 (from UniProt P34932 1-840)
HspA6 (from UniProt P17066 1-643)
HspB1 (from UniProt P04792 1-205)
UBE3C ubiquitin ligase (from UniProt Q15386 1-1083) (enzyme)
eIF3c (from UniProt Q99613 1-913)
eIF3e (from UniProt P60228 1-445)
eiF2B2 (from UniProt P49770 1-351)

Results are given in words; binding and its absence hold for the method and conditions named. In cells and extracts the contact can be indirect. A yes stands for co-enrichment or nearness to the bait. Other partners may have been found.
